This is a selection; strong and weak results do not stand in their true shares. For some of these results: At the low end of the ranking, values are background and their order means little. This is one part of the list. For some of these results: The exact form of the protein is not confirmed.
How the values were obtained:
[1] = molecular target: HSF1 (UniProt Q00613); assay: DAPPL (digital affinity profiling via proximity ligation, sequencing); details: 10 mM Tris-HCl pH 7.5, 50 mM NaCl, 1 mM DTT, 4% glycerol, room temperature, 30 min; GST-TFs on glutathione beads, 16-mer random dsDNA library, 0.1% …; high values mean tight binding; double strand, one strand shown; scale: fold enrichment (6-mer frequency, TF over GST control)
[2] = molecular target: T1, ELF2 (UniProt Q15723); assay: as above; details: 10 mM Tris-HCl pH 7.5, 50 mM NaCl, 1 mM DTT, 4% glycerol, room temperature, 30 min; GST-TFs on glutathione beads, 16-mer random dsDNA library, 0.1% …; high values mean tight binding; double strand, one strand shown; scale: fold enrichment (6-mer frequency, TF over GST control)
T1 sequence: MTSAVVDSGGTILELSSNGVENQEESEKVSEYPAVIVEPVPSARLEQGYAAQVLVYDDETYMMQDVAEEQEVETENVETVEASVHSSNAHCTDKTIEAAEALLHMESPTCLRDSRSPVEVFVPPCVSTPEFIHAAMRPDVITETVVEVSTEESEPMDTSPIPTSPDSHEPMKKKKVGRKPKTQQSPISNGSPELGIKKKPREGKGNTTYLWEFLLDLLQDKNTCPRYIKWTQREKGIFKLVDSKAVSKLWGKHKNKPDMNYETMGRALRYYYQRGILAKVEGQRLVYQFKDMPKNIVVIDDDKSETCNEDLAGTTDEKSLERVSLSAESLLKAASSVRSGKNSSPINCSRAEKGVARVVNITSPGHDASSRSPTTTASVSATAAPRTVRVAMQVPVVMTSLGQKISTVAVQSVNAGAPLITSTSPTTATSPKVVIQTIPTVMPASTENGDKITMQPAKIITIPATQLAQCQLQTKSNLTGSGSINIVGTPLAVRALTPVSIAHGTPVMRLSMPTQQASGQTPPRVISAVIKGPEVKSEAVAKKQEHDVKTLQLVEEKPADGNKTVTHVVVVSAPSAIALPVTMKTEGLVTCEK

Chains of the proteins cited; added tags and fusions are not shown. Lines headed by an entry give the natural chain unless they say otherwise; changes in a name come on top.
UniProt Q00613: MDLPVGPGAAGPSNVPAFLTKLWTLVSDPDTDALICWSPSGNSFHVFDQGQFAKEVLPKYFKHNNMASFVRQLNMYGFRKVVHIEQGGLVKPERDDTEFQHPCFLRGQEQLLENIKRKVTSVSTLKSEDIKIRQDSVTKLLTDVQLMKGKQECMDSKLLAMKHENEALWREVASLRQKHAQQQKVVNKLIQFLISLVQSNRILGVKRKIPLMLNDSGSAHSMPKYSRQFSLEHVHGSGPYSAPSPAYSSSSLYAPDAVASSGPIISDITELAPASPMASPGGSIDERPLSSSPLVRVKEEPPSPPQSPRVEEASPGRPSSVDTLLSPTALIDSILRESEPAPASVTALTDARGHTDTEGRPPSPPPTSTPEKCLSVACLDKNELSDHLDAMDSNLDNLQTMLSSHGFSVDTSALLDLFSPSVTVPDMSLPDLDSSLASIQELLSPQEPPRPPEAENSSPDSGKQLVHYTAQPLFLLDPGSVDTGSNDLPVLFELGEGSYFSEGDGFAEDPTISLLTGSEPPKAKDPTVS

| Sequence | binding signal [1] | binding signal [2] |
| --- | --- | --- |
| GTGCCG | 0.658 | 0.887 |
| TGTAGA | 1.12 | 0.873 |
| CGCGCA | 0.939 | 0.91 |
| CCTGAC | 1.2 | 1.5 |
| GCTTTT | 1.12 | 1.09 |
| CATTAC | 1.02 | 1.13 |
| AAACCG | 0.813 | 1.23 |
| GTACAG | 0.776 | 0.957 |
| TCACGG | 0.861 | 1.09 |
| CTCCAG | 1.65 | 1.11 |
| GTCTCT | 1.12 | 1.18 |
| ACCTGG | 1.2 | 1.23 |
| TTCAGG | 1.22 | 1.22 |
| AGTGCA | 0.747 | 1.11 |
| TCACCG | 0.956 | 1.1 |
| GAATCA | 1.06 | 0.934 |
| TAGGCC | 0.968 | 0.908 |
| AGATTT | 1.75 | 1.2 |
| GTGCAT | 0.765 | 1.06 |

Looked up above:
binding signal [1], GTACAG reads 0.776
binding signal [2], CCTGAC reads 1.5
binding signal [1], GAATCA reads 1.06

Additional results:

| Sequence | binding signal [1] | binding signal [2] |
| --- | --- | --- |
| TGTGCG | 0.862 | 1.01 |
| TCACCA | 1.01 | 1.1 |
| ATAATA | 1.67 | 1.22 |
| GATAAA | 1.21 | 0.969 |
| TTTAGT | 1.2 | 0.995 |
| ATATTG | 1.19 | 1.33 |
| CCTCGG | 0.992 | 1.11 |
| CCATGG | 0.941 | 0.873 |
| ATACTC | 1.41 | 1.23 |
| GCCACC | 0.676 | 0.848 |
| CATTGG | 0.801 | 0.887 |
| ACTGTC | 0.822 | 0.914 |
| AATTAT | 1.55 | 1.28 |
| CCTACC | 0.927 | 1.35 |
| GTACCC | 0.84 | 1.12 |
| CGAACG | 1.2 | 0.976 |
| GACCGC | 0.733 | 0.875 |
| CGCAAT | 0.808 | 0.952 |
| ACGACT | 1.2 | 1.24 |
